Results: patent US20040014187A1, “Bacterial carboxypeptidase cpg2 variants and their use in gene directed enzyme prodrug therapy” (priority 2000, published 2004)
No constants are given. Whether binding was seen depends on the method and setting. Some results given as binding are weak or reduced against the parent protein; the word gives no strength.

Molecular target: CPG2*(N272) (Pseudomonas strain RS16) (UniProt P06621)
Experiment: non-reducing SDS-PAGE of COS cell extracts (homodimer)

B1: CPG2*(N272) (enzyme)
chain: ALAQKRDNVLFQAATDEQPAVIKTLEKLVNIETGTGDAEGIAAAGNFLEAELKNLGFTVTRSKSAGLVVGDNIVGKIKGRGGKNLLLMSHMDTVYLKGILAKAPFRVEGDKAYGPGIADDKGGNAVILHTLKLLKEYGVRDYGTITVLFNTDEEKGSFGSRDLIQEEAKLADYVLSFEPTSAGDEKLSLGTSGIAYVQVNITGKASHAGAAPELGVNALVEASDLVLRTMNIDDKAKNLRFNWTIAKAGLVSNIIPASATLNADVRYARNEDFDAAMKTLEERAQQKKLPEADVKVIVTRGRPAFNAGEGGKKLVDKAVAYYKEAGGTLGVEERTGGGTDAAYAALSGKPVIESLGLPGFGYHSDKAEYVDISAIPRRLYMAARLIMDLGAGK
- binding: binds
